“And” between values parts separate entries of the source, which are not always exact repeats. Equal values may be shown once. This is one part of the list. For some assays here: Construct or isoform of the protein are uncertain.

Chains of the proteins cited; added tags and fusions are not shown. Lines headed by an entry give the natural chain unless they say otherwise; changes in a name come on top.
UniProt P08185: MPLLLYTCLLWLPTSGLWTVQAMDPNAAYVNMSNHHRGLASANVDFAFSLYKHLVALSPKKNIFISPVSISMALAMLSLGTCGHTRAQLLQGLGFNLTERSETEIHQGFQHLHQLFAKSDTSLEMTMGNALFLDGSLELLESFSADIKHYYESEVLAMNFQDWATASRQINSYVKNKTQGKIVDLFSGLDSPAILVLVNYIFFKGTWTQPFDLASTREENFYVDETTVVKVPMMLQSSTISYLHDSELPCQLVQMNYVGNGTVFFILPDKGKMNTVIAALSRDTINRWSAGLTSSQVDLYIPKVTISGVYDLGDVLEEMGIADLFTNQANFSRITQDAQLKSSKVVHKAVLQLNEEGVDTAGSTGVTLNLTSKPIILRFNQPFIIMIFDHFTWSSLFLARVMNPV

Drawing on PMC5996148, this text covers binding signal for 1 sequence.

Holding throughout (assay): protein microarray (ProtoArray v5.0), streptavidin-Alexa Fluor 647
Common to all, as to settings: 3'-biotin; 20 mM Tris (pH 7.5), 5 mM MgCl2, 100 mM KCl, 0.1% Tween-20, A/T-rich and random oligonucleotide blockers; temperature not stated; high values mean tight binding

Assay [1] relates to SCRN2 (human).
The subject of assay [2] is SDC1 (human).
Assay [3] has as its system SDC4 (human).
Assay [4] has as its system SDF2 (human).
The test system of assay [5] is SDSL (human).
Assay [6] deals with SEC13L1 (human).
In assay [7] the test system is SEC31B (human).
The subject of assay [8] is SELI (human).
In assay [9] the test system is SELPLG (human).
The test system of assay [10] is SENP8 (human).
The test system of assay [11] is SEPHS2 (human).
Assay [12] concerns SEPP1 (human).
In assay [13] the test system is SEPT1 (human).
The subject of assay [14] is SEPT11 (human).
Assay [15] concerns SEPT4 (human).
Assay [16] concerns SEPT6 (human).
Assay [17] concerns SEPT9 (human).
The subject of assay [18] is SERPINA10 (human).
Assay [19] concerns the target SERPINA6 (UniProt P08185).
Assay [20] concerns SERPINA6 (human).

Regarding “GGGAGGCTGAGGCAGG [G4-1 biotinylated (PQS2)]”, the binding signal is -0.318 z-score in assay [1]; -0.34 z-score in [2]; -0.329 z-score in [3]; -0.302 z-score in assay [4]; -0.349 z-score in assay [5]; -0.357 z-score and -0.26 z-score in assay [6]. Also, the binding signal in assay [7] was -0.31 z-score; in [8] it was -0.275 z-score; in [9], -0.352 z-score; in assay [10], -0.349 z-score; in [11] it was -0.35 z-score; in assay [12], -0.333 z-score. The binding signal in assay [13] was -0.332 z-score; in assay [14], -0.33 z-score; in [15] it was -0.337 z-score and -0.334 z-score; in assay [16], -0.348 z-score and -0.338 z-score; in assay [17], -0.318 z-score; in assay [18], -0.31 z-score. The results for the binding signal in assay [19] and in assay [20] were -0.332 z-score and -0.356 z-score, respectively.
